From US6623738 (University of California, dated 2003)
Results are given in words; binding and its absence hold for the method and conditions named. Some entries that bind do so weakly or less than the wild type. Where a sequence is shown, tags or fusion partners need not be part of it.

Protein sequences, listed by entry. Tags and fused reporters are not part of them. Lines headed by an entry give the natural chain unless they say otherwise; changes in a name come on top.
UniProt O35375: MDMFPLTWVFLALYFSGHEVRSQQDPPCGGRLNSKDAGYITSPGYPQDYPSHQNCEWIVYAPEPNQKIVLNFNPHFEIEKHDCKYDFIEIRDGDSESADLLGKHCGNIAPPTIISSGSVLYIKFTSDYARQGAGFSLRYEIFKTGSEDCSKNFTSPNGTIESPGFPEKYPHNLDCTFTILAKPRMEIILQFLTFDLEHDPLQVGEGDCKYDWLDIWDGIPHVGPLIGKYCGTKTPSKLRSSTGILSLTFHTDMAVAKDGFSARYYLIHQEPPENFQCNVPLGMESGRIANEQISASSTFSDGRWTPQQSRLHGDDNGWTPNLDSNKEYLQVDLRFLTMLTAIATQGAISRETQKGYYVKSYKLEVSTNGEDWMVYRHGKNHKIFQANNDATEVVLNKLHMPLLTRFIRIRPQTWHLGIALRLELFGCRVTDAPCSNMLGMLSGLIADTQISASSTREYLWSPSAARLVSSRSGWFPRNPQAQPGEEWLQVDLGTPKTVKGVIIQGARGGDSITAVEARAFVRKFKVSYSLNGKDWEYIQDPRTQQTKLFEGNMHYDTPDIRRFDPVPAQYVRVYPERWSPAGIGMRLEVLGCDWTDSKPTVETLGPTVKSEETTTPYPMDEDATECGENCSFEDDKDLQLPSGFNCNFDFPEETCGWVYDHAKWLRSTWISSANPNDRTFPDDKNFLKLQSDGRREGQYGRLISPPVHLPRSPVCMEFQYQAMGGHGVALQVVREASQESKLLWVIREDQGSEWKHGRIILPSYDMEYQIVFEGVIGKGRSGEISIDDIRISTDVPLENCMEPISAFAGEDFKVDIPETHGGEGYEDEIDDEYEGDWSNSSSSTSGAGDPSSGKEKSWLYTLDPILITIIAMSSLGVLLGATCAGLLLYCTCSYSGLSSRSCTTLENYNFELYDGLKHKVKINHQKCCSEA

Tests used:
[1] = biological target: T1, mouse neuropilin-2(a0), myc-tagged, expressed in COS-7 cells (mouse) (UniProt O35375); assay: AP fusion binding to transfected COS cells
T1 sequence: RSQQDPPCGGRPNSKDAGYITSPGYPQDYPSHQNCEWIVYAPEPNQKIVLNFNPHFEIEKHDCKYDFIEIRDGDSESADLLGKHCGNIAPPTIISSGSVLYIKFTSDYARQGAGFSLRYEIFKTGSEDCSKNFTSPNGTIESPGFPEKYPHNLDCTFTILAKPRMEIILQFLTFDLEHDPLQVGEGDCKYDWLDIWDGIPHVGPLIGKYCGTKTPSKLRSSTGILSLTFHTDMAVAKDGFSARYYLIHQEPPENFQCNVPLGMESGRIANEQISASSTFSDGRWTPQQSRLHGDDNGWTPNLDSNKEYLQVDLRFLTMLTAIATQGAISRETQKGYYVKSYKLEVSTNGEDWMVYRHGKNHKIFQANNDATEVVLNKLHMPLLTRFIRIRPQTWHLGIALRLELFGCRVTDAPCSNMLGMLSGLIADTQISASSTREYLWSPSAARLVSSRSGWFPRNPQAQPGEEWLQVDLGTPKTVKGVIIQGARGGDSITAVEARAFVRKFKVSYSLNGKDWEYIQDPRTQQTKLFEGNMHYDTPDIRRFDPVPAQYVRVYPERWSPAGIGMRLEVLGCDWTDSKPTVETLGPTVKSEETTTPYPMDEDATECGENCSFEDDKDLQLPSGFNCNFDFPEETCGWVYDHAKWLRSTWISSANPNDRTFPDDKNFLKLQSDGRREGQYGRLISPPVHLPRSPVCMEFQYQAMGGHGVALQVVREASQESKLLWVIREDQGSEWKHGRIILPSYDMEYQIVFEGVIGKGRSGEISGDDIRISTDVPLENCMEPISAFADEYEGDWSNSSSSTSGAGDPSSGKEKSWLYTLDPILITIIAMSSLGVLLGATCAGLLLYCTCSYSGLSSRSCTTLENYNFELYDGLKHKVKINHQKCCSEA

[2] = biological target: T2, mouse neuropilin-2(a22), myc-tagged, expressed in COS-7 cells (mouse) (UniProt O35375); assay: AP fusion binding to transfected COS cells
T2 sequence: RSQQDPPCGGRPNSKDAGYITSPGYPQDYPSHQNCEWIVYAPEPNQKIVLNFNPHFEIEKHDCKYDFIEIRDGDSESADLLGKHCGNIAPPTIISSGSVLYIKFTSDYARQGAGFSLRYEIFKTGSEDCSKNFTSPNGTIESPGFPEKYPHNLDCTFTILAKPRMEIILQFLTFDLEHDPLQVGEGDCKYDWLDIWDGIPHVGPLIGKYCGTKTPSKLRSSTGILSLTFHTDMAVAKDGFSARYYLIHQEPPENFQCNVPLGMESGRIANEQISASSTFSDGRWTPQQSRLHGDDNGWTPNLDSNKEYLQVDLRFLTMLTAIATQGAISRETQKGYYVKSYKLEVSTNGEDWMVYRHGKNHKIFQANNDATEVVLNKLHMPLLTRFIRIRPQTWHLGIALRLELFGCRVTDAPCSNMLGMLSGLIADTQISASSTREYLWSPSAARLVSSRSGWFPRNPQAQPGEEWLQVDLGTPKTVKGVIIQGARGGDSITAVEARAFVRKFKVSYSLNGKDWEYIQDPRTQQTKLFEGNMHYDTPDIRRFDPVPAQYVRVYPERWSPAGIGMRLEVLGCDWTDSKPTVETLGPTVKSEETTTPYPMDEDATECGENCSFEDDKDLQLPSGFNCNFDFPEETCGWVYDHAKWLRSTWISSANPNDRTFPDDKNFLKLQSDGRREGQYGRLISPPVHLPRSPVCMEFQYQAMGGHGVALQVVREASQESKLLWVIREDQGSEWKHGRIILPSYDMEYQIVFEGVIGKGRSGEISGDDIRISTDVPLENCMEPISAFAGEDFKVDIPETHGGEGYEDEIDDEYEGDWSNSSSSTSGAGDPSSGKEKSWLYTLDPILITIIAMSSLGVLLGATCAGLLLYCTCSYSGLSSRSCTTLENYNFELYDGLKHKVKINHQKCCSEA

[3] = biological target: T3, mouse neuropilin-2(a5), myc-tagged, expressed in COS-7 cells (mouse) (UniProt O35375); assay: AP fusion binding to transfected COS cells
T3 sequence: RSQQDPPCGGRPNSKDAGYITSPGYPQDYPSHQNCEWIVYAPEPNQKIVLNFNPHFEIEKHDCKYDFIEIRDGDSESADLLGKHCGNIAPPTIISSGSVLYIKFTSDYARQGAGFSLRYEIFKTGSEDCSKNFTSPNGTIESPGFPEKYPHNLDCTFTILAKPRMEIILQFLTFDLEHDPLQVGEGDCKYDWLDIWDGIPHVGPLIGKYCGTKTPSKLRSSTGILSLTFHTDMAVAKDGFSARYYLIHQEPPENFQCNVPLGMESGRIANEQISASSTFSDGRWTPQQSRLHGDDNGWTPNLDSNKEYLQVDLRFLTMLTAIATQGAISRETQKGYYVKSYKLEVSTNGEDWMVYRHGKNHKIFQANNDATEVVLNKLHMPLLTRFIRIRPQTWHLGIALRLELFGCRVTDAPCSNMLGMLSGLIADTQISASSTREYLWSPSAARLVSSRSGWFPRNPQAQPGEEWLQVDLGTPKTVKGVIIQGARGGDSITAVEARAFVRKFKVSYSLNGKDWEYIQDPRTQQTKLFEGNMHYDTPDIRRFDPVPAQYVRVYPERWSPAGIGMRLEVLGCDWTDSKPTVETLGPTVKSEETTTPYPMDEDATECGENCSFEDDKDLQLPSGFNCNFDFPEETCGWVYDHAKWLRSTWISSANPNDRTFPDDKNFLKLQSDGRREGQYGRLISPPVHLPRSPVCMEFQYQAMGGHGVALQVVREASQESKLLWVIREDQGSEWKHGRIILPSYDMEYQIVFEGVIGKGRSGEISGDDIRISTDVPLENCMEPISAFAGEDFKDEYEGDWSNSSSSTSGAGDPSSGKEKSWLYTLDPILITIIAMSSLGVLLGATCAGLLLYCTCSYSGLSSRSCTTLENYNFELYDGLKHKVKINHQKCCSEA

[4] = biological target: T4, mouse neuropilin-2(b5), myc-tagged, expressed in COS-7 cells (mouse); assay: AP fusion binding to transfected COS cells
T4 sequence: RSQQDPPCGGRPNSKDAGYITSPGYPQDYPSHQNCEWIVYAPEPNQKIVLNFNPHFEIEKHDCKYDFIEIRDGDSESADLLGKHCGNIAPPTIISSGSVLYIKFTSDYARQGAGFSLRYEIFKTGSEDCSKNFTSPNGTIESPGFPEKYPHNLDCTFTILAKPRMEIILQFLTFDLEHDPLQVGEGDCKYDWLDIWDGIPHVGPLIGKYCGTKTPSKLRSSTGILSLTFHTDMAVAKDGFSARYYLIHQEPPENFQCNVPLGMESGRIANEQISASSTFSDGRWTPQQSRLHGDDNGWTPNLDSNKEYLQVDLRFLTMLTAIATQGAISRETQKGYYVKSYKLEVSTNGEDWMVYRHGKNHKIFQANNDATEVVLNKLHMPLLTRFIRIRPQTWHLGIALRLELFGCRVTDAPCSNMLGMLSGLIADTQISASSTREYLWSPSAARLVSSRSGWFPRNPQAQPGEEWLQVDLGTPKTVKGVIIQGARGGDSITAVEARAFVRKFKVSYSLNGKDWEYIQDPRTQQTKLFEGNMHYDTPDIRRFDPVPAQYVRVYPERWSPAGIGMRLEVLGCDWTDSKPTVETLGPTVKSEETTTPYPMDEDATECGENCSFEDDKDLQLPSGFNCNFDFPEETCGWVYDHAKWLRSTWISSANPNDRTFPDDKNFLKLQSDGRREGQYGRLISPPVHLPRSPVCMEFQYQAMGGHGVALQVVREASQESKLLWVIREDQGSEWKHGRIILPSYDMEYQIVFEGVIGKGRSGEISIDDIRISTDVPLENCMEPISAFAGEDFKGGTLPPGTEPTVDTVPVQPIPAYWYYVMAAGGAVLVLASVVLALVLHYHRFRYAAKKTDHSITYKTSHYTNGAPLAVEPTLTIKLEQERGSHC

[5] = biological target: T4, mouse neuropilin-2(b5), myc-tagged, expressed in COS-7 cells (mouse); assay: equilibrium binding of AP fusion to transfected COS cells (b5 isoform)

- binding [1]: binds
- binding [2]: binds
- binding [3]: binds
- binding [4]: binds
- binding [5]: binds
B1: Sema IV-AP fusion protein (human Sema IV fused to alkaline phosphatase) (ligand, UniProt Q13275 19-785, looked up)
chain: SFPTQDHLPATPRVRLSFKELKATGTAHFFNFLLNTTDYRILLKDEDHDRMYVGSKDYVLSLDLHDINREPLIIHWAASPQRIEECVLSGKDVNGECGNFVRLIQPWNRTHLYVCGTGAYNPMCTYVNRGRRAQATPWTQTQAVRGRGSRATDGALRPMPTAPRQDYIFYLEPERLESGKGKCPYDPKLDTASALINEELYAGVYIDFMGTDAAIFRTLGKQTAMRTDQYNSRWLNDPSFIHAELIPDSAERNDDKLYFFFRERSAEAPQSPAVYARIGRICLNDDGGHCCLVNKWSTFLKARLVCSVPGEDGIETHFDELQDVFVQQTQDVRNPVIYAVFTSSGSVFRGSAVCVYSMADIRMVFNGPFAHKEGPNYQWMPFSGKMPYPRPGTCPGGTFTPSMKSTKDYPDEVINFMRSHPLMYQAVYPLQRRPLVVRTGAPYRLTTIAVDQVDAADGRYEVLFLGTDRGTVQKVIVLPKDDQELEELMLEEVEVFKDPAPVKTMTISSKRQQLYVASAVGVTHLSLHRCQAYGAACADCCLARDPYCAWDGQACSRYTASSKRRSRRQDVRHGNPIRQCRGFNSNANKNAVESVQYGVAGSAAFLECQPRSPQATVKWLFQRDPGDRRREIRAEDRFLRTEQGLLLRALQLSDRGLYSCTATENNFKHVVTRVQLHVLGRDAVHAALFPPLSMSAPPPPGAGPPTPPYQELAQLLAQPEVGLIHQYCQGYWRHVPPSPREAPGAPRSPEPQDQKKPRNRRHHPPDT
notes: written as in the name; Partially purified conditioned medium; also called Sema IV/Sema 3F; not shown: secreted alkaline phosphatase in pSecTag-A
